Results from ChEMBL document CHEMBL4043290, “Structure-based Design of Pyridone-Aminal eFT508 Targeting Dysregulated Translation by Selective Mitogen-activated Protein Kinase Interacting Kinases 1 and 2 (MNK1/2) Inhibition” (J Med Chem, 2018).

Test: physchem
Conditions: octanol/water

Cc1cc(Nc2cc(N)ncn2)c(=O)n2c1C(=O)NC21CCC(F)(F)CC1 gave a logP of 2.4.
